Earlier results as cited in patent US11987576B2, “Compositions and methods for decreasing, or preventing or reversing gain of, skin pigmentation in a mammalian subject” (THE TRUSTEES OF THE UNIVERSITY OF PENNSYLVANIA, priority 2015, dated 2024).
For at least one compound, name, drawing or mass did not settle the structure.

Tested on: ER
Details: cited from earlier work

Compound: CC(C)c1ccc2c(c1)[C@@H]1C=CC[C@@H]1C(c1cc3c(cc1Br)OCO3)N2 (relative stereo) [G-36, rel-(3aS,4R,9bR)-4-(6-bromobenzo[d][1,3]dioxol-5-yl)-8-isopropyl-3a,4,5,9b-tetrahydro-3H-cyclopenta[c]quinolone]
- inhibitory activity against ER: do not have inhibitory activity
